Measured values published in the supplement of paper PMC10338343.
± gives the standard deviation. Only a part is listed here, and it is no random draw. Many entries were measured with a wide error.

Tested on: MIWI (PIWIL1) piRISC loaded with Kctd7 piRNA (30 nt)
Experiment: pre-steady-state target cleavage rate (min^-1); MIWI and MILI are mouse PIWI proteins and EfPiwi is from a freshwater sponge; tags in brackets are library labels; higher = faster piRNA-guided slicing of the target
Conditions: guide: Kctd7 piRNA 5'p-UGUUAAUCUCUCAGAGAAGGUGACAGUGAU; auxiliary factor: 500 nM mouse GTSF1
Summary of the method: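 In HEPES–potassium acetate buffer at 33 °C, […] transcribed, DNA-blocked target RNA library was mixed with 1 nM active affinity-purified piRISC carrying one synthetic guide, with or without 500 nM GTSF1 partner protein, for 0–8 or 0–960 min. Uncleaved targets were sequenced and normalised to depth and to weakly complementary targets; three trials were pooled and k3 was capped at 0.0001 min^-1. The pre-steady-state cleavage rate followed from a burst-and-steady-state fit.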
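Also: 1 nM active piRISC with 0.1 nM target library at 33 °C single turnover.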

Sequence	pre-steady-state target cleavage rate
UAGUGACAGACCUUGAGUGAGAGAUUAAGA	0.000378 ± 0.031
UUCACUGUCACCUUGCUCUGAGAGAUUAACA	0.747 ± 0.11
UACACUGUCACCUUCUCUGAGUGAUUUACA	0.0176 ± 0.0081
UAGUGAGUCACCUUCUCUCAGAGAUAUUGA	0.00272 ± 0.0046
UACACUGUCACCUUCUCUGACUCAUUUUGA	0.00221 ± 0.0058
UAGUGACAGACCUACUCUGAGAGAAUAACA	0.000971 ± 0.0071
UAGUGACUCACCUUCUCAGAGAGAUAUUGA	0.00265 ± 0.004
UAGUGACAGUGGAUCUCUGAGACAUUAUCA	0.000205 ± 0.028
UACACUGUCACCUUCUCUGAGACUAUUUGA	0.00281 ± 0.0039
UAGUCUGUCACCUUCUCUGAGACAUUAUCA	0.0172 ± 0.0056
UAGUGACAGUGGAACUCUGAGACGAUUAACA	0.00094 ± 0.015
UAGUGACAGUCCUUCUCUGAGAGUAUAACA	0.00115 ± 0.0054
UAGUGACAGUGGAUUCUCUGAGAGAUUAACA	0.000155 ± 0.022
UAGUGACAGUCCUACUCUGAGAGUUUAACA	0.00174 ± 0.0035
AUCACUUGUCACCUUCUCUGAGAGAUUAACA	0.754 ± 0.12
UAGUGACAGUCCUUCUCUCAGAGAUUAUCA	0.00189 ± 0.0057
UAGUGACAGUCCAUCUGUGAGAGAUUAACA	0.000797 ± 0.0079
UAGUGACUCACCUUCUGUCAGAGAUUAACA	0.0013 ± 0.0063
UAGUGACAGUGGAAGAGACUGAGCAUUAACA	0.00041 ± 0.013
UAGUGACAGUGCUUCUGUGUGAGAUUAACA	0.00168 ± 0.0067
UAGUGUGUCACCUUCUCUGAGUGAUUAUGA	0.00172 ± 0.0057
UAGUGAGUCACCUUCUGAGAGAGAUAUUGA	0.00124 ± 0.0088
UACACUGUCACGUUCUCUGAGAGAUUAACA	0.743 ± 0.037
UAGUGACAGACCUUGUCUCAGAGAUUAACA	0.00105 ± 0.0057

In another format: results already given

| Sequence | pre-steady-state target cleavage rate |
| --- | --- |
| UAGUGACAGUCCUUCUCUGAGAGUAUAACA | 0.00115 ± 0.0054 |
| UAGUGACAGUGGAUUCUCUGAGAGAUUAACA | 0.000155 ± 0.022 |

Remaining list, next part

Sequence	pre-steady-state target cleavage rate
ACCACUGUCACCUUCUCUGAGAGAUUAACA	0.715 ± 0.039
UAGUGAGUCACCUUCUCUCUCAGAUUUUGA	0.00148 ± 0.0097
AACACUGUCUCCUUCUCUGAGAGAUUAACA	0.738 ± 0.039
UAGUGACAGUGGAAGAGAGAGAGAAUUACA	0.000296 ± 0.023
UAGUGACAGUCCUUCUCUGAGACAUUUACA	0.000611 ± 0.0086
UAGUGACACAGCUUCUCUGAGAGAUUUUGA	0.000748 ± 0.0083
UAGACUGAGACCUUCUCUGAGAGAUAUUGA	0.00183 ± 0.0048
UAGUGACAGUGGAAGUCUGAAAGAUUAACA	0.000112 ± 0.037
UAGUCUGUCACCAUCUCUGAGAGAUUAUGA	0.021 ± 0.0082
UAGUGACUCACGAUCUCUGAGAGAUUAAGA	0.00113 ± 0.0098
UACACUGUCUGGUUCUCUGAGAGAUUUUGA	0.0006 ± 0.015
UACACUGUCACCUUCUGACAGAGAUUUUGA	0.000559 ± 0.023
UAGUGACAGUCCUUCUCUGUCAGAUUAACA	0.000945 ± 0.0071
UAGUGACACACCUUGAGUGAGAGAUUAAGA	0.000345 ± 0.034
UCCACUGUCACCUUCUCUGAGAGAUUAACA	0.68 ± 0.028
UAGUGACACACCUUCUCUGAGAGUAUAAGA	0.00284 ± 0.0047
UAGACUGUCACCGUCUCUGAGAGAUUAACA	0.769 ± 0.037
UAGUGACAGUGGAAGAGACAGAUAUUAACA	0.000339 ± 0.017
UAGUGUGUCAGGAUCUCUGAGAGAUUAUGA	0.000641 ± 0.012
AUCACUGUCACCUUCUCUGACUCAUUAAGA	0.00187 ± 0.0046
UAGUGACACACCUUCUCUGAGACUUUAUGA	0.000315 ± 0.017
UAGUGAGUCACCUUCUCUGAGAGAUUAUGA	0.088 ± 0.019
UAGUCUGUCACCUCCUCUGAGAGAUUAACA	0.726 ± 0.038
UAGUGACAGUGCUUCUUCUGAGAGAUUAACA	0.000995 ± 0.0056

Sequence	pre-steady-state target cleavage rate
UAGACUGUCACCAACUCUGAGAGAUUAUGA	0.00147 ± 0.0054
UAGUGACAGACCUUCUCUGAGGAGAUUAACA	0.00268 ± 0.0037
UAGUGAGUCAGGUUCUCUGAGAGAUUUUGA	0.00174 ± 0.0064
UAGUCUGUCUCCAUCUCUGAGAGAUUAACA	0.509 ± 0.034
UAGUGACAGUGCUUCUCAGAGAGAUUUACA	0.00114 ± 0.0059
UAGUGACAGUCCAACUCUGAGAGAUUAACA	0.000326 ± 0.0088
UAGACUGUCACCUUCUCUGAGAGAUUAAUA	0.414 ± 0.035
UAGUGACAGACCUUCUCUGAGGAUUAACA	0.000818 ± 0.0082
UAGUGACACACCUUCUGAGAGAGAUUAUGA	0.00153 ± 0.0098
UUCUCUGUGACCUUCUCUGAGAGAUUAACA	0.491 ± 0.023
UAGUGACAGUGGAACUCUGAGAGAUUAUCA	0.00014 ± 0.038
UAGUGACAGUGGUUCUCUGGAGAUUAACA	0.00157 ± 0.0045
UAGUGUGUCACCUUCUCUGUCUGAUUUUGA	0.000808 ± 0.018
AUCACUGUCACCUUCUCUGUCUGAUUAACA	0.00339 ± 0.0039
UUCACUGUCACCUGCUCUGAGAGAUUAACA	0.645 ± 0.031
UAGUGACAGUGGAACUCUGAGAGCAUUAACA	0.00024 ± 0.02
UAGUGACAGACCUUCAGUGAGAGAUUUUGA	0.000514 ± 0.016
UAGACUGUGACCAUCUCUGAGAGAUUAACA	0.359 ± 0.025
UACACUGUCACCUUCUCACUGAGAUUUUGA	0.00346 ± 0.0055
UAGUGACUCACCUUGACUGAGAGAUUAUGA	0.000313 ± 0.028
UAGUGACAGUGCUUCUCUCAGUGAUUAACA	0.000893 ± 0.0049
UAGACUGUCACCUUCUCUGACUCAUUAUGA	0.00019 ± 0.013
UUCACACUCACCUUCUCUGAGAGAUUUUGA	0.0972 ± 0.024
UAGUGACAGUGGAUCUCUGGAGAUUAACA	0.000828 ± 0.0037
